{
  "source": "paper PMC7668184",
  "key": {"[1]": {"target": "MalE-TPR12-14 (MalE-SgmX^A813-L1060) (Myxococcus xanthus)", "experiment": "pull-down; MalE or MalE-SgmX fusions preimmobilised on amylose resin; purified MglA-His6 preincubated with GTP loaded; flow-through, washes and elution on SDS-PAGE, Coomassie blue staining; both purified"}, "[2]": {"target": "MalE-SgmX^ΔTPR12-14 (MalE-SgmX^D2-D853) (Myxococcus xanthus)", "experiment": "pull-down; MalE or MalE-SgmX fusions preimmobilised on amylose resin; purified MglA-His6 preincubated with GTP loaded; flow-through, washes and elution on SDS-PAGE, Coomassie blue staining; both purified"}, "[3]": {"target": "N-terminal MalE-tagged SgmX (MalE-SgmX^D2-L1060) (Myxococcus xanthus)", "experiment": "pull-down; MalE or MalE-SgmX fusions preimmobilised on amylose resin; purified MglA-His6 preincubated with GTP loaded; flow-through, washes and elution on SDS-PAGE, Coomassie blue staining; both purified"}, "[4]": {"target": "MalE-TPR12-14 (MalE-SgmX^A813-L1060) (Myxococcus xanthus)", "experiment": "pull-down; MalE or MalE-SgmX fusions preimmobilised on amylose resin; purified MglA-His6 preincubated with GDP loaded; flow-through, washes and elution on SDS-PAGE, Coomassie blue staining; both purified"}, "[5]": {"target": "MalE-SgmX^ΔTPR12-14 (MalE-SgmX^D2-D853) (Myxococcus xanthus)", "experiment": "pull-down; MalE or MalE-SgmX fusions preimmobilised on amylose resin; purified MglA-His6 preincubated with GDP loaded; flow-through, washes and elution on SDS-PAGE, Coomassie blue staining; both purified"}, "[6]": {"target": "N-terminal MalE-tagged SgmX (MalE-SgmX^D2-L1060) (Myxococcus xanthus)", "experiment": "pull-down; MalE or MalE-SgmX fusions preimmobilised on amylose resin; purified MglA-His6 preincubated with GDP loaded; flow-through, washes and elution on SDS-PAGE, Coomassie blue staining; both purified"}},
  "note": "Results are given in words; binding and its absence hold for the method and conditions named. For part of these data: A result given as binding can be weak or reduced; the word gives no strength. Tags and fused reporters may be left off the sequences shown.",
  "data": [
    {"binder": "C-terminal His6-tagged MglA (MglA-His6) (protein, UniProt Q1DB04 1-195) MSFINYSSREINCKIVYYGPGLCGKTTNLQYIYNKTAAETKGKLISLSTETDRTLFFDFLPLSLGEIRGFKTRFHLYTVPGQVFYDASRKLILKGVDGVVFVADSQIERMEANMESLENLRINLAEQGYDLNKIPYVIQYNKRDLPNAVTVEEMRKALNHRNIPEYQAVAPTGVGVFDTLKAVAKLVLTELKKGG", "values": [
      {"measurement": "binding", "setting": "[1]", "result": "binds"},
      {"measurement": "binding", "setting": "[2]", "result": "no binding"},
      {"measurement": "binding", "setting": "[3]", "result": "binds"},
      {"measurement": "binding", "setting": "[4]", "result": "no binding (only MglA preincubated with GDP)"},
      {"measurement": "binding", "setting": "[5]", "result": "no binding"},
      {"measurement": "binding", "setting": "[6]", "result": "no binding (only MglA preincubated with GDP)"}
    ]}
  ]
}
